Article PMC3794954, “An Improved SELEX-Seq Strategy for Characterizing DNA-Binding Specificity of Transcription Factor: NF-κB as an Example”
For at least one entry, the source does not settle the construct or the ends of the probe. The comparison behind a weaker result is the experiment's own reference, which may not be listed here. Tags and fusion partners may be left off the protein sequences shown.

Target: T1, NF-kB p50 (UniProt P19838)
T1 sequence (looked up, limits assumed): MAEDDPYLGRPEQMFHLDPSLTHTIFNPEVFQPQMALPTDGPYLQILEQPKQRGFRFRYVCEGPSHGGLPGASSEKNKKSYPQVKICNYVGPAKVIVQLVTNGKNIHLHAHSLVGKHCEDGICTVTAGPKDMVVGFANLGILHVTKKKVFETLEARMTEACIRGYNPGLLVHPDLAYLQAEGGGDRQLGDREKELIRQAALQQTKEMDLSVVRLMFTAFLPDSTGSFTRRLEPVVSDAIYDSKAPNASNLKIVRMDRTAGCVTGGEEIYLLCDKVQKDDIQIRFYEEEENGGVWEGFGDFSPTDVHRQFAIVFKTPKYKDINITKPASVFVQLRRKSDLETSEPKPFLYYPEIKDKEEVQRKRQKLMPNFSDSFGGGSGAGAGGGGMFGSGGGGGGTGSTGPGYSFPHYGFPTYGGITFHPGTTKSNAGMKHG
Assay: EMSA
Conditions: lower affinity than the 3' C probe; 1x DBB (from 5x): 10 mM Tris-HCl pH 7.5, 50 mM NaCl, 0.5 mM EDTA, 3 mM MgCl2, 1% glycerol, 0.5 mg/ml BSA, 0.05% NP-40, 0.01 mM DTT; room temperature 60 min; commercial protein; label: biotin at ends

Sequence: AGTTGAGGGGACTTTCCTAGGC (double strand) [probe a (GGGACTTTCCT)]
- binding result: binds more weakly
